{"source": "patent US7455840B2", "about": "“Compositions and methods to reduce mutagenesis” (priority 2003, dated 2008)", "system": "wild type MG1655 E. coli"}
{"smiles": "O=C(O)c1cn(C2CC2)c2cc(N3CCNCC3)c(F)cc2c1=O", "note": "[ciprofloxacin]", "values": [{"measurement": "number of mutations per viable cell per day after exposure to the antibiotic", "value": "2.9(+/−0.41)×10^−5 mutations per viable cell per day"}, {"measurement": "increase of number of mutations per viable cell per day after exposure to the antibiotic", "setting": "solid media, 35 ng/mL ciprofloxacin, versus exponential growth before exposure", "value": "increased by at least four-orders of magnitude"}]}
